Measurements from paper doi:10.1101/2025.04.22.650084.
No constants are given. Whether binding was seen depends on the method and setting. Some results given as binding are weak or reduced against the parent protein; the word gives no strength. Where a sequence is shown, tags or fusion partners need not be part of it.

Legend:
Assay in all cases: two-hybrid
[1] = biological target: T1, U1-70k (49∼427aa) (N-IDR-deleted U1-70k, yeast two-hybrid fusion) (Arabidopsis thaliana) (UniProt Q42404)
T1 sequence: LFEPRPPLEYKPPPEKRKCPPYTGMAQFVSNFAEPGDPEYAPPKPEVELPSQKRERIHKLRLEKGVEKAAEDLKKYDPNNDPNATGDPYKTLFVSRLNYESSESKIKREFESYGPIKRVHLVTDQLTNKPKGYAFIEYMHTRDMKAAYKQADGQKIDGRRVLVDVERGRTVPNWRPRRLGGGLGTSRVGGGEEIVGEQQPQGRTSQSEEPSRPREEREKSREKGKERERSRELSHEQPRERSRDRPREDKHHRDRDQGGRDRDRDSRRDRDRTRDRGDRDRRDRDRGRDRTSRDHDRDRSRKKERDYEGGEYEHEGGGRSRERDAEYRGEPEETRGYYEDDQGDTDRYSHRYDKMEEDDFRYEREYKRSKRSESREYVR

[2] = biological target: T2, U1-70k 1∼393aa (LC2-deleted U1-70k, yeast two-hybrid fusion) (Arabidopsis thaliana) (UniProt Q42404)
T2 sequence: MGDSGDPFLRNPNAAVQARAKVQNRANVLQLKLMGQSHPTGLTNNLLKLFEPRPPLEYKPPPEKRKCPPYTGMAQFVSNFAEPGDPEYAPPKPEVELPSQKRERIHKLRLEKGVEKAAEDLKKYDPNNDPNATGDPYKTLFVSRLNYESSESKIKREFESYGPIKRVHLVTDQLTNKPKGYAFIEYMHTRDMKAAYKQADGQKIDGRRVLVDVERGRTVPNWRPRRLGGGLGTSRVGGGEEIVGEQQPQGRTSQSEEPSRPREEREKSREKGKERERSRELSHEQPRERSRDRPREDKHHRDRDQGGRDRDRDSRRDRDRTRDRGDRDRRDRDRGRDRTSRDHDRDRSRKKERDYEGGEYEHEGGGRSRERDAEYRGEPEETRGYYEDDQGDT

[3] = biological target: T3, U1-70k (full-length, yeast two-hybrid fusion) (Arabidopsis thaliana) (UniProt Q42404)
T3 sequence: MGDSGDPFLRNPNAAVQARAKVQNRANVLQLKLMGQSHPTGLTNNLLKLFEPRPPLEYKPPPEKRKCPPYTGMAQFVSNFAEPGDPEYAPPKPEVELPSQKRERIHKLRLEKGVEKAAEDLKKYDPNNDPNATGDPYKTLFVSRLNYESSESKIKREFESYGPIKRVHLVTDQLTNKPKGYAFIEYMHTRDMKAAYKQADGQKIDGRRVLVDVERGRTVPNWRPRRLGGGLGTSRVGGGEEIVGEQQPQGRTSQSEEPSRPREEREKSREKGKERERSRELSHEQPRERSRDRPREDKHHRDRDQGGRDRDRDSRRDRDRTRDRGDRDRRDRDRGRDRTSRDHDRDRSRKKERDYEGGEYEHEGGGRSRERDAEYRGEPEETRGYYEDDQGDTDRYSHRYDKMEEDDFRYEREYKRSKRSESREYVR

[4] = biological target: T4, U1-70k (235-427aa) (yeast two-hybrid fusion) (Arabidopsis thaliana) (UniProt Q42404)
T4 sequence: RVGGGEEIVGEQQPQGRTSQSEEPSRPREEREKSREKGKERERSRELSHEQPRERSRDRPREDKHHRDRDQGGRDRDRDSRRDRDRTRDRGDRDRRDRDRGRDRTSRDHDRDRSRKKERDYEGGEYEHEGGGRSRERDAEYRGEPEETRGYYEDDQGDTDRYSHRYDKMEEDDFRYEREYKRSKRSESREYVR

- binding [1]: binds
- binding [2]: no binding
- binding [3]: binds
- binding [4]: no binding
B1: SGS3 (suppressor of gene silencing 3, yeast two-hybrid fusion) (protein, UniProt Q9LDX1 1-625)
chain: MSSRAGPMSKEKNVQGGYRPEVEQLVQGLAGTRLASSQDDGGEWEVISKKNKNKPGNTSGKTWVSQNSNPPRAWGGQQQGRGSNVSGRGNNVSGRGNGNGRGIQANISGRGRALSRKYDNNFVAPPPVSRPPLEGGWNWQARGGSAQHTAVQEFPDVEDDVDNASEEENDSDALDDSDDDLASDDYDSDVSQKSHGSRKQNKWFKKFFGSLDSLSIEQINEPQRQWHCPACQNGPGAIDWYNLHPLLAHARTKGARRVKLHRELAEVLEKDLQMRGASVIPCGEIYGQWKGLGEDEKDYEIVWPPMVIIMNTRLDKDDNDKWLGMGNQELLEYFDKYEALRARHSYGPQGHRGMSVLMFESSATGYLEAERLHRELAEMGLDRIAWGQKRSMFSGGVRQLYGFLATKQDLDIFNQHSQGKTRLKFELKSYQEMVVKELRQISEDNQQLNYFKNKLSKQNKHAKVLEESLEIMSEKLRRTAEDNRIVRQRTKMQHEQNREEMDAHDRFFMDSIKQIHERRDAKEENFEMLQQQERAKVVGQQQQNINPSSNDDCRKRAEEVSSFIEFQEKEMEEFVEEREMLIKDQEKKMEDMKKRHHEEIFDLEKEFDEALEQLMYKHGLHNEDD
